Source: patent US9024019B2, “Insecticidal triazinone derivatives” (Syngenta Participations AG, priority 2011, dated 2015)
Some entries share one result that the patent states for a list of compounds. At least one compound was matched to its structure with a doubt left.

Assays:
Assay type in all cases: in vivo
[1] = test system: Neonicotinoid Resistant Myzus persicae (Green Peach Aphid); assay: Activity against neonicotinoid resistant Myzus persicae, mixed population, contact/feeding (pea seedlings, spray chamber); conditions: 3 ppm, 6 days after treatment
[2] = test system: Myzus persicae (Green Peach Aphid), susceptible aphid population; assay: Activity against Myzus persicae, mixed population, contact/feeding (pea seedlings, spray chamber); conditions: 3 ppm, 6 days after treatment
[3] = test system: Bemisia tabaci (Cotton White Fly); assay: Activity against Bemisia tabaci, feeding/residual contact activity, preventive (cotton leaf discs); conditions: 200 ppm, 6 days after infestation, adults
[4] = test system: Myzus persicae (Green Peach Aphid); assay: Activity against Myzus persicae, mixed population, feeding/residual contact activity, preventive (sunflower leaf discs); conditions: 200 ppm, 6 days incubation
[5] = test system: Frankliniella occidentalis (Western Flower Thrips); assay: Activity against Frankliniella occidentalis, feeding/residual contact activity, preventive (sunflower leaf discs); conditions: 200 ppm, 7 days after infestation
[6] = test system: Myzus persicae (Green Peach Aphid); assay: Activity against Myzus persicae, mixed population, systemic/feeding activity, curative (pea seedling roots in test solution); conditions: 24 ppm, 6 days after introduction
[7] = test system: Aphis craccivora (Cowpea Aphid); assay: Aphis craccivora, mixed population, seed treatment, systemic/feeding activity on sugar beet, preventive; conditions: 0.3 mg a.i. per seed, infested two weeks after sowing, seven days incubation
[8] = test system: Rhopalosiphum padi (Bird Chemy Oat Aphid); assay: Activity against Rhopalosiphum padi, mixed population, seed treatment, systemic/feeding activity on barley, preventive; conditions: 0.3 mg a.i. per seed, infested two weeks after sowing, seven days incubation
[9] = test system: Neonicotinoid Resistant Bemisia tabaci (Silverleaf Whitefly); assay: Activity against neonicotinoid resistant Bemisia tabaci, adults, contact/feeding activity, curative (cotton leaf discs, track sprayer); conditions: 4 days after infestation
[10] = test system: Bemisia tabaci (Silverleaf Whitefly); assay: Activity against Bemisia tabaci, adults, contact/feeding activity, curative (cotton leaf discs, track sprayer); conditions: 4 days after infestation

CON=CC1=NNC(=O)N(N=Cc2cccnc2)C1 [E.001]
over 80%: activity (mortality) [1] | activity (mortality) [2] | activity (mortality) [3] | activity (mortality) [4] | activity (mortality) [5] | activity (mortality) [6] | activity (grade of efficacy) [7]

CO/N=C/C1=NNC(=O)N(/N=C/c2cncc(F)c2)C1 [E.002]
over 80%: activity (mortality) [1] | activity (mortality) [2] | activity (mortality) [3] | activity (mortality) [4] | activity (grade of efficacy) [8] | activity (mortality) [6] | activity (grade of efficacy) [7]

CO/N=C/C1=NNC(=O)N(/N=C/c2ccc[n+]([O-])c2)C1 [E.003]
over 80%: activity (mortality) [1] | activity (mortality) [2] | activity (mortality) [3] | activity (mortality) [4] | activity (mortality) [6] | activity (grade of efficacy) [7]

CO/N=C/C1=NNC(=O)N(/N=C/c2cncnc2)C1 [E.004]
over 80%: activity (mortality) [3] | activity (mortality) [4] | activity (mortality) [6] | activity (grade of efficacy) [7]

CO/N=C/C1=NNC(=O)N(/N=C/c2cnccn2)C1 [E.005]
over 80%: activity (mortality) [4] | activity (mortality) [6]

CO/N=C(\C)C1=NNC(=O)N(/N=C/c2cccnc2)C1 [E.006]
over 80%: activity (mortality) [1] | activity (mortality) [2] | activity (mortality) [3] | activity (mortality) [4] | activity (mortality) [6]

CCO/N=C/C1=NNC(=O)N(/N=C/c2cccnc2)C1 [E.007]
over 80%: activity (mortality) [1] | activity (mortality) [2] | activity (mortality) [3] | activity (mortality) [4] | activity (mortality) [6]

CN(C)/N=C/C1=NNC(=O)N(/N=C/c2cccnc2)C1 [E.016]
over 80%: activity (mortality) [3] | activity (mortality) [4] | activity (mortality) [5]

CC1(C)CC(C2=NNC(=O)N(/N=C/c3cccnc3)C2)=NO1 [E.017]
over 80%: activity (% adult mortality) ([9]; 50 ppm) | activity (% adult mortality) ([9]; 200 ppm) | activity (adult mortality) ([10]; 12.5 ppm) | activity (adult mortality) ([10]; 50 ppm) | activity (mortality) [1] | activity (mortality) [2] | activity (mortality) [4] | activity (mortality) [5] | activity (grade of efficacy) [7]

CC1(C)CC(C2=NNC(=O)N(/N=C/c3cncc(F)c3)C2)=NO1 [E.018]
over 80%: activity (mortality) [1] | activity (mortality) [2] | activity (mortality) [4] | activity (grade of efficacy) [8] | activity (mortality) [6] | activity (grade of efficacy) [7]
